Laboratory results reported in paper PMC5791174.
Results are given in words; binding and its absence hold for the method and conditions named. In cells and extracts the contact can be indirect. Some binding calls cover weakened binding; strength is not graded here.

The chains behind the UniProt entries cited, without tags or fusion partners. Residues count along the entry.
UniProt O00206, residues 24-839: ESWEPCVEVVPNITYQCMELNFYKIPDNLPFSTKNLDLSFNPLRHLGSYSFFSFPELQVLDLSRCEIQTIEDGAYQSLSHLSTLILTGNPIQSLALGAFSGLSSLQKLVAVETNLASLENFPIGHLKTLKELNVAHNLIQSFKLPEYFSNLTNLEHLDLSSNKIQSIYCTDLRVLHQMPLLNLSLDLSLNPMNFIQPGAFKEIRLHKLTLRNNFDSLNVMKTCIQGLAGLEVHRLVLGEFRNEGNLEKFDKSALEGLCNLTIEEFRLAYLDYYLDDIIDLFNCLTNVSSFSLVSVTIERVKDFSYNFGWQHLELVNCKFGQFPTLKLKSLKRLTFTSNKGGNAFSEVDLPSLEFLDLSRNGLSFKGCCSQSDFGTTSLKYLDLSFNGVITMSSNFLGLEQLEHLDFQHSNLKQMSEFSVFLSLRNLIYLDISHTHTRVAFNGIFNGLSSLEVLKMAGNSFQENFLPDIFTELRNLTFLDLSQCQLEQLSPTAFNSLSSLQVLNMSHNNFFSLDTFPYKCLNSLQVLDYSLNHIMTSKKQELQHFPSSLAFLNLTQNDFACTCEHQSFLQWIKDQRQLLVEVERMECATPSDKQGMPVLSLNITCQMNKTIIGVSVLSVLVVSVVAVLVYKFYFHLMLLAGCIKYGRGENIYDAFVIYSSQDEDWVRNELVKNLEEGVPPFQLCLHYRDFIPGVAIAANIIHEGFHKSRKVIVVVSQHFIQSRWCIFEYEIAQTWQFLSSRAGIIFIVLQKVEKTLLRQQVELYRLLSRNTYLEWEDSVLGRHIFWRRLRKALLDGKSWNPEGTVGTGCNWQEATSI
UniProt Q99836: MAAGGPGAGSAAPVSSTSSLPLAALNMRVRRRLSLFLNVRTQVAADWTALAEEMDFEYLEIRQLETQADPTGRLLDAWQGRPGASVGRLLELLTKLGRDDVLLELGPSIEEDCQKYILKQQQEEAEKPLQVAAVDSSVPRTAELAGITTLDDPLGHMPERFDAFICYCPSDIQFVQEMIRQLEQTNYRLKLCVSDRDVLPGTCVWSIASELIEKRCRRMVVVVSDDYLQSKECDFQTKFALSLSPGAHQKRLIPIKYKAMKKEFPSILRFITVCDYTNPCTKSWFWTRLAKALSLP

Target: Toll-like receptor 4 (human (endogenous in resected brain tissue)) (UniProt O00206)
Assay: co-IP; Pierce Co-IP kit; anti-TLR4 antibody (10 ug/mL) immobilised on AminoLink Plus resin, incubated with tissue lysate overnight, eluate blotted for MyD88 and TLR4; FCD type II lesion and peri-FCD tissue of eight patients compared

In the case of MyD88 (from UniProt Q99836 1-296), the binding is reported as “binds”.
